# Assay results taken from PubChem BioAssay AID540276 (National Center for Advancing Translational Sciences (NCATS), 2011).
# Where “and” joins values, the source holds several entries; their conditions need not be identical. Equal values may be shown once. Screen size: about 300,000 compounds; about 5,400 (1.8%) were called active. The shares of active, inactive and inconclusive entries below differ from those in the screen. Calls come from the whole dose curve; tested in HEK293 cells. Where the call is inconclusive, the potency comes from a doubtful curve fit.
# Test: qHTS for inhibitors of binding or entry into cells for Marburg Virus
# Settings: Marburg virus pseudotyped entry inhibition, cell reporter; activity change, negative = inhibition: at 37.8 µM (top of the series) unless noted
# % is set by controls: 0 for no effect and ±100 for the full control effect; potency is the fitted concentration of half-maximal effect.
SMILES,"activity change, negative = inhibition",Potency
COc1ccc(/C=N\NC(=O)C2CCCC2)cc1Br,inactive: 10.8% [at 46.1 µM],
N=c1sccn1CC(=O)NCc1ccc(Cl)cc1Cl,,active: 12.6 µM
CCc1ccnc(NC(=O)NS(=O)(=O)c2ccc(C)cc2)c1,,"inconclusive: 15.8 µM [activator, single point]"
c1ccc2c(c1)CC(N1CCN(c3cccc4c3OCCO4)CC1)C2,,"inconclusive: 31.6 µM [inhibitor, full curve, poor fit] and inconclusive: 25.9 µM [inhibitor, single point]"
COC(=O)C(Cc1c[nH]c2ccccc12)NC(=O)c1cc(-c2ccc(OC)c(OC)c2)oc1C (stereo not drawn),,"inconclusive: 35.5 µM [inhibitor, partial curve, poor fit]"
O=C(COC(=O)c1cc([N+](=O)[O-])ccc1N1CCOCC1)Nc1c(Cl)cccc1Cl,,"inconclusive: 10 µM [inhibitor, partial curve, poor fit]"
Cc1cccc(OCC(=O)Nc2ccncc2)c1C,,"inconclusive: 7.94 µM [inhibitor, partial curve, poor fit]"
CCCOc1ccc(/C(O)=C2\C(=O)C(=O)N(CCN(C)C)[C@H]2c2ccncc2)cc1,inactive: 20.1%,
C=CCSc1nc(C)c(Cc2cccc3ccccc23)c(=O)[nH]1,,"inconclusive: 7.94 µM [inhibitor, partial curve, poor fit]"
Cc1cc(/C=C2\C(=O)NC(=O)N(Cc3ccccc3Cl)C2=O)c(C)n1-c1ccc(C(=O)O)cc1,,inactive
Cc1cccc(N2CCC(N3CCN(C4CCCCC4)C(CCO)C3)CC2)c1C (stereo not drawn),,"inconclusive: 8.91 µM [inhibitor, partial curve, poor fit]"
COc1cc(CNc2cccc(C(=O)O)c2)cc(Br)c1OCC(=O)NC(C)(C)C,,"inconclusive: 6.31 µM [activator, single point]"
CN1CCN(c2ccc(-c3cccc(NC(=O)COc4ccc(Cl)cc4Cl)c3)nn2)CC1,,"inconclusive: 14.1 µM [inhibitor, single point]"
Cc1cc2nc(C)n(CCCNC(=O)Nc3ccc(F)cc3)c2cc1C,,"inconclusive: 20.6 µM [inhibitor, single point]"
CCOC(=O)C1(Cc2ccccc2C(F)(F)F)CCN(C2CCN(C(C)=O)CC2)CC1,,"inconclusive: 15.8 µM [inhibitor, single point]"
Cc1ccc(NC(=S)NN2CCN(C)CC2)c(C)c1,,"inconclusive: 5.17 µM [activator, partial curve, poor fit]"
O=C(COC(=O)c1cc(Cl)ccc1O)Nc1cc(C(F)(F)F)ccc1N1CCOCC1,inactive: -2.1%,
COc1cccc(OCCn2cc(C(=O)c3ccco3)c3ccccc32)c1,,"inconclusive: 29.1 µM [inhibitor, single point]"
Cc1ccc(S(=O)(=O)N(CCCN2CCCC2=O)Cc2cc3c(C)ccc(C)c3[nH]c2=O)cc1,,"inconclusive: 32.6 µM [inhibitor, single point]"
CC(=O)c1ccc(N(C(=O)CS(=O)CC(=O)Nc2ccc(F)cc2)C(C(=O)NC2CCCCC2)c2cccs2)cc1 (stereo not drawn),inactive: -0.879%,
CCCC(=O)NC(c1ccc(N(C)C)cc1)c1c(O)ccc2ccccc12 (stereo not drawn),,"inconclusive: 3.55 µM [inhibitor, full curve, poor fit]"
N#C/C(=C\c1ccc(OC(=O)c2ccc(Br)s2)cc1)c1nc2ccccc2[nH]1,,"inconclusive: 5.8 µM [activator, full curve, poor fit]"

# A second format for some results above:
SMILES	activity change, negative = inhibition	Potency
COc1ccc(/C=N\NC(=O)C2CCCC2)cc1Br	inactive: 10.8% [at 46.1 µM]	
O=C(COC(=O)c1cc([N+](=O)[O-])ccc1N1CCOCC1)Nc1c(Cl)cccc1Cl		inconclusive: 10 µM [inhibitor, partial curve, poor fit]
C=CCSc1nc(C)c(Cc2cccc3ccccc23)c(=O)[nH]1		inconclusive: 7.94 µM [inhibitor, partial curve, poor fit]
CCCC(=O)NC(c1ccc(N(C)C)cc1)c1c(O)ccc2ccccc12 (stereo not drawn)		inconclusive: 3.55 µM [inhibitor, full curve, poor fit]

# Further results follow.

SMILES,"activity change, negative = inhibition",Potency
CCCCOc1ccc(C(=O)NC(=S)Nc2ccc(CN3CCOCC3)cc2)cc1,inactive: -0.926%,
C=CCn1c(COc2cccc(C)c2)nnc1SCC(=O)c1c[nH]c2c(CC)cccc12,,"inconclusive: 31.6 µM [inhibitor, single point]"
NC(N)=N/N=C/c1ccc(OCc2ccccc2Cl)cc1,,"inconclusive: 8.2 µM [inhibitor, single point]"
Cc1c(N)c(C(C)(C)C)cc(C(C)(C)C)c1[N+](=O)[O-],,"inconclusive: 0.1 µM [inhibitor, full curve, poor fit]"
CN(C)C(=O)On1c(-c2ccccc2)nc2ccc(Cl)cc21,inactive: 4.7%,
COc1ccc2oc(=O)cc(CN3CCN(C(=O)c4ccccc4)CC3)c2c1,inactive: 9.57% [at 46.1 µM],
CC(=O)Nc1ccc(N(C(=O)CNC(=O)c2ccco2)C(C(=O)NCc2ccco2)c2ccccc2F)cc1 (stereo not drawn),,"inconclusive: 22.4 µM [activator, single point]"
CCOc1ccc(NC(=O)c2oc3ccccc3c2NC(=O)Cc2ccc(OC)c(OC)c2)cc1,,"inconclusive: 2 µM [activator, partial curve, poor fit]"
Cc1ccc(N=C2N=C(N)c3ccccc32)c(C)c1,inactive: -18.6%,
CCc1nn(C(C)C(=O)Nc2cccc(C)c2C)c(=O)c2cc3occc3n12 (stereo not drawn),inactive: -23.9%,
Cc1ccc(NC(=O)Nc2cccnc2)cc1Cl,inactive: 10.2% [at 46.1 µM],
CCCc1cc(C(=O)Nc2cc(C)ccc2O)no1,,"inconclusive: 6.31 µM [inhibitor, partial curve]"
Cc1ccc(-n2nc(CO)c(C(=O)NCCO)n2)cc1,inactive: 16.1% [at 46.1 µM],
COc1ccc(CCNC(=O)Cn2nnc(-c3cccc(C(F)(F)F)c3)n2)cc1OC,inactive: 2.66% [at 46.1 µM],
CCCC(N)CCCCCC(=O)O (stereo not drawn),,"inconclusive: 11.2 µM [activator, partial curve, poor fit]"
COc1ccc(N(CC(=O)NCc2ccc(F)cc2)C(=O)CCC(=O)Nc2ccccn2)cc1,inactive: -10.8% [at 46.1 µM],
CCC(C(=O)NCc1ccco1)n1nc(C)c2c(C)n(-c3ccccc3)nc2c1=O (stereo not drawn),inactive: -0.495% [at 46.1 µM],
CCOC(=O)c1ccc(NC(=O)c2ccc3c(c2)CCN3S(=O)(=O)c2ccc(Cl)cc2)cc1,,"inconclusive: 8.91 µM [inhibitor, partial curve, poor fit]"
COc1ccc(CCNC(=O)CSc2ccccn2)cc1OC,,"inconclusive: 6.31 µM [activator, single point]"
COc1cccc(C2=NN(C(=O)c3ccc(C)o3)C(O)(C(F)(F)F)C2)c1 (stereo not drawn),,"inconclusive: 35.5 µM [inhibitor, single point]"
NC(=O)CC1C(=O)N(c2ccccc2)C(=S)N1NC(=O)c1ccccc1 (stereo not drawn),,"inconclusive: 3.98 µM [activator, full curve, poor fit]"
